## Library screening results

Sequences of proteins named here, by UniProt entry; tags and fusion partners are left off.
UniProt E9BF75, entry or part of it: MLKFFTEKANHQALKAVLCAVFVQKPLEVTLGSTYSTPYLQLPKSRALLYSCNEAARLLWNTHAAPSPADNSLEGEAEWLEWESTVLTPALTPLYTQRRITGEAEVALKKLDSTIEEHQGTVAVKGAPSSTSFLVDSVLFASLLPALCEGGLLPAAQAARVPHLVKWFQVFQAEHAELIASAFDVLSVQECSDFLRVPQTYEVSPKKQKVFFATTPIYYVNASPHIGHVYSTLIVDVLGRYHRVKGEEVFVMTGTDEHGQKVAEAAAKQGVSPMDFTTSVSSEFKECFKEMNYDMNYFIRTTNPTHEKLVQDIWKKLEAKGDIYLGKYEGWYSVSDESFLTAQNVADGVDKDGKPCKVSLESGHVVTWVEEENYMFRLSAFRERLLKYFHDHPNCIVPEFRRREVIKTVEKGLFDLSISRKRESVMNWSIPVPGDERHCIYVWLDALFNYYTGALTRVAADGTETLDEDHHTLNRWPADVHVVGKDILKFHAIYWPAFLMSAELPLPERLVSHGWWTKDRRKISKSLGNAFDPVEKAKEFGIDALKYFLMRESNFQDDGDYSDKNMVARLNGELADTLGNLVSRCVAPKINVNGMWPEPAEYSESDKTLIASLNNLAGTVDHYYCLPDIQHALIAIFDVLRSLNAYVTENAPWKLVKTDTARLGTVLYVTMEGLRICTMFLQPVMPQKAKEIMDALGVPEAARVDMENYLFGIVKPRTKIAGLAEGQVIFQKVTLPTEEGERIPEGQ

Source: ChEMBL document CHEMBL3988442, “University of Dundee, Small-Polar-MMV Screening Library” (2021).

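Methionyl-tRNA synthetase (putative), Leishmania donovani (UniProt E9BF75). Primary screen of methionyl-tRNA synthetase; the read-out is not stated. The test concentration is not given. Values are per cent inhibition. Size under these conditions: about 68,000 compounds, about 24 of them at 50% or above in at least one test.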

Results are percentages, as filed. The controls that fix the scale are not given in the record; negative values are as filed. This is an unselected part of the compounds tested.

SMILES | Inhibition
Cc1cc(C)n(CC2CCCN2CC(=O)Nc2nncs2)n1 (stereo not drawn) | 3.147%
Cc1nc(C)n(CC2CCCN(CC(=O)Nc3ccncc3)C2)n1 (stereo not drawn) | 17.89%
COC(=O)c1cc(C)nc(N2CCN(Cc3ccn(C(C)C)c3)CC2)n1 | 19.3%
COc1c(C2CCCN2c2ncnc3c2cnn3C)c(C)nn1C (stereo not drawn) | 9.041%
NC(=O)C1CN(C(=O)Cc2cccnc2)CCN(C2CCOCC2)C1 (stereo not drawn) | 11.3%
COC(=O)c1cccc(CNC(=O)CCC(F)(F)F)c1 | 6.522%
Cc1nc(NCc2ccc(C)o2)cc(C(=O)N2CCOCC2)n1 | 12.6%
N#Cc1cccc(CNCCC(=O)N2CCc3sccc3C2)c1 | 6.211%
Cc1csc(CNc2cnn(C(C)C)c2)n1 | 0%
CN(C(=O)c1cccc2[nH]ncc12)C1CCN(c2ccccn2)CC1 | 3.472%
COc1ccc(CN2CC(O)CN(C(=O)C3CCC3)CC2=O)cc1 (stereo not drawn) | -3.014%
Cc1ccc(CNC(c2ccc(F)cc2)c2nccn2C)o1 (stereo not drawn) | 15.97%
O=C(CN1CCCC(Cn2cncn2)C1)Nc1cccnc1 (stereo not drawn) | 8.782%
O=C1NCCN1C1CCN(Cc2coc(-c3ccccc3)n2)CC1 | 8.101%
O=c1cc(N2CCNCC2)cnn1CCCn1cccn1 | 16.62%
COc1cc(F)c(NC(=O)N(C)CCNC(=O)N(C)C)cc1F | 5.108%
CC(C)NC(=O)CNC(C)c1c(F)cccc1Cl (stereo not drawn) | 7.186%
CN(Cc1ccncc1)C1CC2(CCN(Cc3ccccn3)CC2)C1 | 5.473%
COc1ccccc1N1CCN(C(=O)CCn2ccnc2C)CC1(C)C | 3.147%
CCN(C(=O)Cc1ccc(NCc2nccn2C)cc1)c1ccccc1 | 16.54%
O=C(NC1CC1)c1cccc(S(=O)(=O)NCCc2nc(C3CC3)no2)c1 | 3.922%
COc1cc(C(=O)NS(=O)(=O)c2cccc(C#N)c2)ccc1C | 1.587%
FC(F)(F)c1cccc(CNc2nccc(C(F)(F)F)n2)c1 | 15.64%
COc1cccc(-c2nccc(C3CCCN3C)n2)c1 (stereo not drawn) | 6.824%
CC1(C)COCCN1C(=O)Cc1csc(Cc2ccccn2)n1 | 9.777%
CCN(CC)CCn1ccnc1-c1cccc(C#N)c1 | 13.19%
Cc1cnc(C(=O)N2CCC3(CCN3Cc3ccc(F)cc3)C2)cn1 (stereo not drawn) | 8.798%
c1cnnc(N2CCCC(NCc3nc(-c4ccco4)no3)C2)c1 (stereo not drawn) | 7.731%
Cn1ncc(NCc2cc(F)cc(F)c2)c(Cl)c1=O | 9.091%
COc1ccc(N2CCN(C[C@@H](C)CO)CC2=O)cc1 | 10.67%
CC(=O)Nc1ncc(S(=O)(=O)Nc2ccccc2F)s1 | 5.779%
CCS(=O)(=O)N1CCN(c2cc(-n3cnc(C)c3C)nc(C)n2)CC1 | 14.18%
COc1cncc(N2CCN(Cc3cccn3C)CC2)n1 | 12.01%
CCCc1noc(C(C)N2CCN(Cc3nc(C)c(C)o3)CC2)n1 (stereo not drawn) | 21.05%
CC(=O)N1Cc2ccccc2CC1C(=O)Nc1cc(C)ccn1 (stereo not drawn) | 13.94%
O=C(CC1NC(N2CCc3ccccc3C2)=NC1=O)Nc1ccccc1 (stereo not drawn) | 15.09%
CCC(=O)N1CCC2(CCC(N3CCCC3)c3ccccc32)CC1 (stereo not drawn) | 17.39%
CCc1ocnc1C(=O)Nc1ccc2ccn(CCN(C)C)c2c1 | 11.62%
CCOCC1CCN(C(=O)C(c2cccc(F)c2)N(C)C)CC1 (stereo not drawn) | 9.148%
CCNc1cc2c(nn1)CCN(C(=O)C1CCc3ccccc31)C2 (stereo not drawn) | 0.5587%
COc1ccc(C2Nc3ccccc3C3=NCCCN32)cc1OC (stereo not drawn) | 3.136%
N#Cc1cccc(CN2CCN(C(=O)C3CCC3)[C@@H]3CS(=O)(=O)C[C@@H]32)c1 | 8.065%
Cc1csc(CN(CC2CCCO2)C(=O)c2ccc(C)nc2C)n1 (stereo not drawn) | 9.524%
CCCc1n[nH]c(C2CN(CCC(F)(F)F)CCO2)n1 (stereo not drawn) | 18.62%
Cc1cnc(N2CC[C@H]3[C@H](C[C@@H](CN(C)C)N3C)C2)nc1 | 10.1%
O=C(CCc1cccnc1)Nc1ccc(OCC2CCOCC2)cc1 | 15.33%
O=C(C[C@@H]1COC[C@H]2CN(CC3CC3)C[C@@H]12)N1CCCCO1 | 9.489%
Cc1ccccc1C(=O)NCCC(=O)NS(=O)(=O)c1cccnc1 | 16.62%
O=S(=O)(Cc1ccc(F)c(Cl)c1)NC(CO)c1ccco1 (stereo not drawn) | 11.45%
CC(=O)NCC(=O)NC1CCc2c(ccc(=O)n2CC2CC2)C1 (stereo not drawn) | 10.8%
Cc1ccc(-c2ncc(CN3CCOC(c4ccco4)C3)s2)o1 (stereo not drawn) | 7.829%
COc1cc(C)c(CNC(C)c2nc(C)cs2)cc1OC (stereo not drawn) | 16.77%
CNc1cc(C)nc(N2Cc3cnn(Cc4ccc(F)cc4)c3C2)n1 | 11.17%
Cc1cc(NC(=O)CN2CCn3c(nnc3C(C)C)C2)n(C)n1 | 5.464%
CCOCCOC(C)C(=O)Nc1ccc2[nH]c(C)cc2c1 (stereo not drawn) | 4.735%
Cc1ccc(N2C[C@@H]3CN(C(=O)NC4CCCC4)C[C@]3(C(=O)O)C2)nn1 | 11.18%
COC[C@@H]1CCCN1C(=O)CCc1c(C)nn(C)c1C | 10.92%
CCc1noc(CC)c1CC(=O)N1CCC(C(=O)NC(C)C)CC1 | 12.58%
CCNC(=O)NC1CCN(c2ccc(S(=O)(=O)CC)cc2)CC1 | 11.54%
O=C(CN1C(=O)CC2(CCCC2)C1=O)NCCc1nccs1 | 11.33%
CC(NC(=O)Cn1ccnc1)c1ccc(OCC2CC2)c(F)c1 (stereo not drawn) | 10.44%
COCC(=O)N1CCC2(CC1)CCN(Cc1ccccn1)C2=O | 5.579%
CC(C)OCc1cccc(NC(=O)N(C)Cc2ncnn2C)c1 | 18.77%
CNC(=O)CN1C(=O)CCC12CCCN(CCc1ccccc1)C2 (stereo not drawn) | 6.667%
O=C1CC[C@H]2CN(Cc3cccc(F)c3)CC[C@H]2N1CCc1c[nH]cn1 | 12.06%
Cc1noc([C@H]2COC[C@H]3CN(C(=O)Cc4ccsc4)C[C@H]32)n1 | 18.16%
COc1c(C)cnc(CN2CCOC(Cn3nc(C)cc3C)C2)c1C (stereo not drawn) | 20.56%
O=C(NCC1CC1)C1CN(Cc2cccs2)Cc2ccnn2C1 (stereo not drawn) | -0.274%
CCc1nccn1CC(=O)Nc1cccc(N2CCCC2)c1 | 10.87%

Some entries from above, unchanged:

{"smiles": "CCc1ocnc1C(=O)Nc1ccc2ccn(CCN(C)C)c2c1", "Inhibition": 11.62}
{"smiles": "COc1c(C)cnc(CN2CCOC(Cn3nc(C)cc3C)C2)c1C", "stereo": "stereo not drawn", "Inhibition": 20.56}
{"smiles": "O=C1NCCN1C1CCN(Cc2coc(-c3ccccc3)n2)CC1", "Inhibition": 8.101}
{"smiles": "Cc1cnc(C(=O)N2CCC3(CCN3Cc3ccc(F)cc3)C2)cn1", "stereo": "stereo not drawn", "Inhibition": 8.798}
{"smiles": "FC(F)(F)c1cccc(CNc2nccc(C(F)(F)F)n2)c1", "Inhibition": 15.64}
{"smiles": "CCN(C(=O)Cc1ccc(NCc2nccn2C)cc1)c1ccccc1", "Inhibition": 16.54}
{"smiles": "CCc1noc(CC)c1CC(=O)N1CCC(C(=O)NC(C)C)CC1", "Inhibition": 12.58}